No constants are given. Whether binding was seen depends on the method and setting. Binding seen in cells or lysates may run through a third protein. Some results given as binding are weak or reduced against the parent protein; the word gives no strength.
T1: GRB10-interacting GYF protein 2 (GIGYF2), human, endogenous (human (endogenous in HEK293T)) (UniProt Q6Y7W6)
T1 sequence: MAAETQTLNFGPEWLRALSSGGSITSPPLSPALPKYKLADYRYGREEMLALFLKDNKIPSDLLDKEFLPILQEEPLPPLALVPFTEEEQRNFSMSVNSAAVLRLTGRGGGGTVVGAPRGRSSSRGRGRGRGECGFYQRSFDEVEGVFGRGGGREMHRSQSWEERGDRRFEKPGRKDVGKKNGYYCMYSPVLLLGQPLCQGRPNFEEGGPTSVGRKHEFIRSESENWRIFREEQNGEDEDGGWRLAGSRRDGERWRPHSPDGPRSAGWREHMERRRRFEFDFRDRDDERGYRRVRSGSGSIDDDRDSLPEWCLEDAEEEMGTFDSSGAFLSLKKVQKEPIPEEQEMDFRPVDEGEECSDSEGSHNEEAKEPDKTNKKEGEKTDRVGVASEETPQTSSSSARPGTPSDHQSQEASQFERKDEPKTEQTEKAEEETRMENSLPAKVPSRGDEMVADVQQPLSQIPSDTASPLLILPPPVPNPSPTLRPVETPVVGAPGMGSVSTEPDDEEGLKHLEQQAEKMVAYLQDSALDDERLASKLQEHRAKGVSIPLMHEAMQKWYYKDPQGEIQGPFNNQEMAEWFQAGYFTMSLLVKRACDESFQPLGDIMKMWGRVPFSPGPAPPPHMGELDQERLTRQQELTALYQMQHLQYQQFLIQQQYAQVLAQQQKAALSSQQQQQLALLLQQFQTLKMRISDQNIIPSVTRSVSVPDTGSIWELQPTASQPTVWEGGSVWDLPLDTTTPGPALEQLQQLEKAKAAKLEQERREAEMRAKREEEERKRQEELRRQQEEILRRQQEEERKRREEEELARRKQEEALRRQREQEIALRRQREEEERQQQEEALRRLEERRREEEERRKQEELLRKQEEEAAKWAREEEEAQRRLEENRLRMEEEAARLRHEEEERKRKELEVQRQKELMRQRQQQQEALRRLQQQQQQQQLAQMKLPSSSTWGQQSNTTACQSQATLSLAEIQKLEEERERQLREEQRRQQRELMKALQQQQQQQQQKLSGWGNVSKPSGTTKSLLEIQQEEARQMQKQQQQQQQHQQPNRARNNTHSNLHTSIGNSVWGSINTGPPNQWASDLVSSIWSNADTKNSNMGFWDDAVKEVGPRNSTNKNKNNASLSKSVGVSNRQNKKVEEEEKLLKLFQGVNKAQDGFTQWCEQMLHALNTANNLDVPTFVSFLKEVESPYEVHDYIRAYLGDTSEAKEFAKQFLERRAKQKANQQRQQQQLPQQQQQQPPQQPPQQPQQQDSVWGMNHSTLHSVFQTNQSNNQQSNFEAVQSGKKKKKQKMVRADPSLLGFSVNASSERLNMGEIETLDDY

Chains of the proteins cited; added tags and fusions are not shown.
UniProt O60573: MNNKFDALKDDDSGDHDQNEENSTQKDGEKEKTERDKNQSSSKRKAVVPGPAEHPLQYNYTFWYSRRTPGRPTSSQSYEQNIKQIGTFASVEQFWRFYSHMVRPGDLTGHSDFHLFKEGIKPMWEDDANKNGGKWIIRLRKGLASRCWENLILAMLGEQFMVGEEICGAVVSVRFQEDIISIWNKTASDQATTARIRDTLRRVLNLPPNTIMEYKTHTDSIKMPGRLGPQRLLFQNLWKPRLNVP


Target: T1, GRB10-interacting GYF protein 2 (GIGYF2), human, endogenous (human (endogenous in HEK293T))
Assay: co-IP

Molecule | binding
4EHP (eIF4E homologous protein, eIF4E2), endogenous (from UniProt O60573 1-245) | binds
Zinc-finger protein 598 (ZNF598), endogenous (protein, UniProt Q86UK7 1-904) MAAAGGAEGRRAALEAAAAAAPERGGGSCVLCCGDLEATALGRCDHPVCYRCSTKMRVLCEQRYCAVCREELRQVVFGKKLPAFATIPIHQLQHEKKYDIYFADGKVYALYRQLLQHECPRCPELPPFSLFGDLEQHMRRQHELFCCRLCLQHLQIFTYERKWYSRKDLARHRMQGDPDDTSHRGHPLCKFCDERYLDNDELLKHLRRDHYFCHFCDSDGAQDYYSDYAYLREHFREKHFLCEEGRCSTEQFTHAFRTEIDLKAHRTACHSRSRAEARQNRHIDLQFSYAPRHSRRNEGVVGGEDYEEVDRYSRQGRVARAGTRGAQQSRRGSWRYKREEEDREVAAAVRASVAAQQQEEARRSEDQEEGGRPKKEEAAARGPEDPRGPRRSPRTQGEGPGPKETSTNGPVSQEAFSVTGPAAPGCVGVPGALPPPSPKLKDEDFPSLSASTSSSCSTAATPGPVGLALPYAIPARGRSAFQEEDFPALVSSVPKPGTAPTSLVSAWNSSSSSKKVAQPPLSAQATGSGQPTRKAGKGSRGGRKGGPPFTQEEEEDGGPALQELLSTRPTGSVSSTLGLASIQPSKVGKKKKVGSEKPGTTLPQPPPATCPPGALQAPEAPASRAEGPVAVVVNGHTEGPAPARSAPKEPPGLPRPLGSFPCPTPQEDFPALGGPCPPRMPPPPGFSAVVLLKGTPPPPPPGLVPPISKPPPGFSGLLPSPHPACVPSPATTTTTKAPRLLPAPRAYLVPENFRERNLQLIQSIRDFLQSDEARFSEFKSHSGEFRQGLISAAQYYKSCRDLLGENFQKVFNELLVLLPDTAKQQELLSAHTDFCNREKPLSTKSKKNKKSAWQATTQQAGLDCRVCPTCQQVLAHGDASSHQALHAARDDDFPSLQAIARIIT | binds

Source: article doi:10.1101/2025.02.28.640929
